Paper doi:10.1101/2025.08.20.670930

Sequences of proteins named here, by UniProt entry; tags and fusion partners are left off.
UniProt O43303: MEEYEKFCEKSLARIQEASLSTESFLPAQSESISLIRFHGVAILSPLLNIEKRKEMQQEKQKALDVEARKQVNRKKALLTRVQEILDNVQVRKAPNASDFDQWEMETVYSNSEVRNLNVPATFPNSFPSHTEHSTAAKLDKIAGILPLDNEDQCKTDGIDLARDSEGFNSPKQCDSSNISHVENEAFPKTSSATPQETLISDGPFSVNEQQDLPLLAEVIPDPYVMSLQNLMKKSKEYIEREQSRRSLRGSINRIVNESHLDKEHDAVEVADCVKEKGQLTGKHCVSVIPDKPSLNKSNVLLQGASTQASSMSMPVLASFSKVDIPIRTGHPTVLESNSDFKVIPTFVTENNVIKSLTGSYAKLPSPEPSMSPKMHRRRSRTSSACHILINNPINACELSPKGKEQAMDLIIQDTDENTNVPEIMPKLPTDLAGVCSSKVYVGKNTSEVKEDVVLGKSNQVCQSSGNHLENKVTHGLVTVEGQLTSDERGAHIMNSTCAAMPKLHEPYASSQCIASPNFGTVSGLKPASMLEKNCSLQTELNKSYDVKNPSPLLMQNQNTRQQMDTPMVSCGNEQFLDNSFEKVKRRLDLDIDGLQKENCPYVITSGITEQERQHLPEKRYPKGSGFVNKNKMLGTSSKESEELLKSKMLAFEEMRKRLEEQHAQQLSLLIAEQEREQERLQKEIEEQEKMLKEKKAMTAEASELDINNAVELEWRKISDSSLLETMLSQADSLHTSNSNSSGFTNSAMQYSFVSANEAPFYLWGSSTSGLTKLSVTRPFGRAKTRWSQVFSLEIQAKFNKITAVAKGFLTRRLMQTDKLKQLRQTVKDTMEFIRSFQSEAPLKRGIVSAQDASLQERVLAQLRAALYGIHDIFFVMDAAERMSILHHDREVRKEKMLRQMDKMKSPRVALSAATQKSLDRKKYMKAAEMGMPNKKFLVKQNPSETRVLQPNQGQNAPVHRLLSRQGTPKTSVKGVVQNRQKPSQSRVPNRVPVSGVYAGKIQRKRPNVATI
UniProt O15078: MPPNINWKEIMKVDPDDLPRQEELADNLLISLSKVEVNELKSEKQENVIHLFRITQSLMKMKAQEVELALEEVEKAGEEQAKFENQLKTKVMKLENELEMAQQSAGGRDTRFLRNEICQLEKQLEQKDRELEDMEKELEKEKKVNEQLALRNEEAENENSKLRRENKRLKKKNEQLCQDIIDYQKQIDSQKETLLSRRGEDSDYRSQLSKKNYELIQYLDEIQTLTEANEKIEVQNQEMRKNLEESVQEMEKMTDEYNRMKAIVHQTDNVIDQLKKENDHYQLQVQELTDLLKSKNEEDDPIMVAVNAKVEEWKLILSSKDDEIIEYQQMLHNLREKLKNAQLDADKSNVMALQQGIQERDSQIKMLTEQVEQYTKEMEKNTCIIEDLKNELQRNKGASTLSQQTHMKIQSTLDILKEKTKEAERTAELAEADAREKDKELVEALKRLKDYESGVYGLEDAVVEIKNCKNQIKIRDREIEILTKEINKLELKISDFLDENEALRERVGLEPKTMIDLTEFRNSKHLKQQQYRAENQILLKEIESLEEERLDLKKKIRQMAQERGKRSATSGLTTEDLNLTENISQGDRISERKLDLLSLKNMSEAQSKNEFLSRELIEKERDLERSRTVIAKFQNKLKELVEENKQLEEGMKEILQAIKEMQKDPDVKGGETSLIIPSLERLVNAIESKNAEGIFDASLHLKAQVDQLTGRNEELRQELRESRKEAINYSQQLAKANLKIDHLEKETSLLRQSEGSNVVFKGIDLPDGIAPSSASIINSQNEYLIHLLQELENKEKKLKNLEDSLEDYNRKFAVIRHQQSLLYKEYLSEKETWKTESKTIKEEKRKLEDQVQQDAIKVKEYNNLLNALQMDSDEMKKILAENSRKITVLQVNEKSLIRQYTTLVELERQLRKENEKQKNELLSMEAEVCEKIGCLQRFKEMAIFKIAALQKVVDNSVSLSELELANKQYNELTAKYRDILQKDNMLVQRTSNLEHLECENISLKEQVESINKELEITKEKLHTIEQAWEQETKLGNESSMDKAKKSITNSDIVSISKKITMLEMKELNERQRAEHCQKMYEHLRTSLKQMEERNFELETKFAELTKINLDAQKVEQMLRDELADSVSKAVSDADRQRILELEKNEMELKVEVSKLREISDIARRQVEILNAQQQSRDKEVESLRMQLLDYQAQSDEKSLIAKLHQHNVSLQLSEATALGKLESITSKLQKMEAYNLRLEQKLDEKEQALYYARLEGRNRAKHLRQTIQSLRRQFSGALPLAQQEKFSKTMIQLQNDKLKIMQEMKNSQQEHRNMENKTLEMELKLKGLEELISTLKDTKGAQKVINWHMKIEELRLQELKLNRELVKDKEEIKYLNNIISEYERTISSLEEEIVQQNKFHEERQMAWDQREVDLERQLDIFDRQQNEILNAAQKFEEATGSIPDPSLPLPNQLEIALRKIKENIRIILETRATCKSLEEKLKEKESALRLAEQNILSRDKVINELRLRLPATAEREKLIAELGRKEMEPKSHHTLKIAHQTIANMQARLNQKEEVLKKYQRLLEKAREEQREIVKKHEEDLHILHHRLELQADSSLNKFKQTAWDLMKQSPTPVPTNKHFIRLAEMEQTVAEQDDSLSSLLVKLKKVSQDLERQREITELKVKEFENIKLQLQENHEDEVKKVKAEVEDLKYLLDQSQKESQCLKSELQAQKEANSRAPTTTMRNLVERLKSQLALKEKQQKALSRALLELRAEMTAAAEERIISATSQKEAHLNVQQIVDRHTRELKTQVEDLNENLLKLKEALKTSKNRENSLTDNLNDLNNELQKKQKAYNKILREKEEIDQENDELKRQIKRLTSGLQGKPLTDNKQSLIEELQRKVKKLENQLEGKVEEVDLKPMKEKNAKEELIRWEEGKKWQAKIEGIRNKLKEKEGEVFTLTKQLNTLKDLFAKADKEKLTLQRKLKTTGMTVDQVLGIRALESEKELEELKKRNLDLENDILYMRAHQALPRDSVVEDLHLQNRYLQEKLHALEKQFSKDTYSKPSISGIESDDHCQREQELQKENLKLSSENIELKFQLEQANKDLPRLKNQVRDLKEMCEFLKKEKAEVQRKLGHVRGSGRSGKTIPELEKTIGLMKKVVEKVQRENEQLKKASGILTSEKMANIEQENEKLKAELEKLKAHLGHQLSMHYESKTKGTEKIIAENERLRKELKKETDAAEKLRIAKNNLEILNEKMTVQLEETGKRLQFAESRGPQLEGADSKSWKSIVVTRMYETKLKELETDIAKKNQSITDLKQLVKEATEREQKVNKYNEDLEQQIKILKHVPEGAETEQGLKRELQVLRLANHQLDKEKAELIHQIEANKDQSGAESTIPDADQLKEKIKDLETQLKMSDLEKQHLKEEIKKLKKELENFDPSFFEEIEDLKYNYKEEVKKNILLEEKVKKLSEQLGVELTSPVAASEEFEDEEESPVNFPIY
UniProt Q96JN8: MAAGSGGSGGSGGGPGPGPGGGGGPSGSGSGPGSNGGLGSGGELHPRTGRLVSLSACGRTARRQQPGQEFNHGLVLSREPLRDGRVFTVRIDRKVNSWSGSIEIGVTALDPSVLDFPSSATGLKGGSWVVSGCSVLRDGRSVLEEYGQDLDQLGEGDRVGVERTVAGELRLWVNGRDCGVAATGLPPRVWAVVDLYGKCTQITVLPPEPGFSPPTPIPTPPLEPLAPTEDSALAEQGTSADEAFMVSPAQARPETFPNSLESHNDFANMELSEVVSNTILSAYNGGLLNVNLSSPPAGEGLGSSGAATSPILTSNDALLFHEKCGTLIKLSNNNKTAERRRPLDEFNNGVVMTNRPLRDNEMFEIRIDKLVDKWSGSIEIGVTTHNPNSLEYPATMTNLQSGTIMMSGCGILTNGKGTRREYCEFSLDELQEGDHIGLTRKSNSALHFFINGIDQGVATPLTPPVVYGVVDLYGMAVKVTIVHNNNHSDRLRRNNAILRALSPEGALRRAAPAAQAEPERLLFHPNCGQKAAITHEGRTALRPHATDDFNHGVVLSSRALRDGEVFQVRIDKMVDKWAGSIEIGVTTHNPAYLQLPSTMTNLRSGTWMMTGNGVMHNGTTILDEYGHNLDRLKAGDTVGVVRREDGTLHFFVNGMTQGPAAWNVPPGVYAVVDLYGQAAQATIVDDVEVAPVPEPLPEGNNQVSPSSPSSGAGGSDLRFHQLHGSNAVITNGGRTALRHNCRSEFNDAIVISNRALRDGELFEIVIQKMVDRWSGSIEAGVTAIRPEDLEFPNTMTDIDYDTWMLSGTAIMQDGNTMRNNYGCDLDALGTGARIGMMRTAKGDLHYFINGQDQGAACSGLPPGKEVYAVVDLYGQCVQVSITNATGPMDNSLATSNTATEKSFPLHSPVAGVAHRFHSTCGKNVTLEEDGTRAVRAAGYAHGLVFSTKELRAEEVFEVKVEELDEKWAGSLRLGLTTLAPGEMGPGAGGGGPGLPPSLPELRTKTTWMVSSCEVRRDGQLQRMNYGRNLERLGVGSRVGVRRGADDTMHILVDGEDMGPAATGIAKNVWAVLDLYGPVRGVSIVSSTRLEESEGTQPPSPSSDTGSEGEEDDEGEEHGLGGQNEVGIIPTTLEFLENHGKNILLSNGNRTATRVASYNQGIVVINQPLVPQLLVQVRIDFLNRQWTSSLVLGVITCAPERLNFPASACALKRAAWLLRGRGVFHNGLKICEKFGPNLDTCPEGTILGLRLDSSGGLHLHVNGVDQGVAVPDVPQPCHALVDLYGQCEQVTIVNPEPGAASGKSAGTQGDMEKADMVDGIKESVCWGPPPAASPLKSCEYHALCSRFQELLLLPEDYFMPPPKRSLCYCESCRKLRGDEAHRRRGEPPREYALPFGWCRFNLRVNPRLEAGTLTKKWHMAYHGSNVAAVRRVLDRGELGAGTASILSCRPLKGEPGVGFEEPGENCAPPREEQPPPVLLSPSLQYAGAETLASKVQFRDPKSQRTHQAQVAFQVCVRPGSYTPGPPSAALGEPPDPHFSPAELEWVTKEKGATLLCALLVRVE

T1: LAP-EHD1 (UniProt Q9H4M9)
T1 sequence: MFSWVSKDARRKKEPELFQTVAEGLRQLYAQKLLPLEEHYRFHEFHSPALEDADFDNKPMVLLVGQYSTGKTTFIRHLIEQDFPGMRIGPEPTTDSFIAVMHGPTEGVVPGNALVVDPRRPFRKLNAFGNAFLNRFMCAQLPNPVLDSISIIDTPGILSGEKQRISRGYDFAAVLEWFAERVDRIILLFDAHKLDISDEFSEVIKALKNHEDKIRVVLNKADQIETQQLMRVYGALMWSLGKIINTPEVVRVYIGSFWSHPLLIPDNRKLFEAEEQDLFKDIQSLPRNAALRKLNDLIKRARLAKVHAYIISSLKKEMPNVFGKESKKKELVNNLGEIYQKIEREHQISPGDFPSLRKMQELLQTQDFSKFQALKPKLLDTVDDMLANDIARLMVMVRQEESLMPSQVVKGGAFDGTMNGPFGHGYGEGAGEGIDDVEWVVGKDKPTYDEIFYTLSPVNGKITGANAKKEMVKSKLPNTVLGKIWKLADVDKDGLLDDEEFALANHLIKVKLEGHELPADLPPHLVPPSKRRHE

B1: EHD1 (endogenous) (protein, UniProt Q9H4M9 1-534)
chain: MFSWVSKDARRKKEPELFQTVAEGLRQLYAQKLLPLEEHYRFHEFHSPALEDADFDNKPMVLLVGQYSTGKTTFIRHLIEQDFPGMRIGPEPTTDSFIAVMHGPTEGVVPGNALVVDPRRPFRKLNAFGNAFLNRFMCAQLPNPVLDSISIIDTPGILSGEKQRISRGYDFAAVLEWFAERVDRIILLFDAHKLDISDEFSEVIKALKNHEDKIRVVLNKADQIETQQLMRVYGALMWSLGKIINTPEVVRVYIGSFWSHPLLIPDNRKLFEAEEQDLFKDIQSLPRNAALRKLNDLIKRARLAKVHAYIISSLKKEMPNVFGKESKKKELVNNLGEIYQKIEREHQISPGDFPSLRKMQELLQTQDFSKFQALKPKLLDTVDDMLANDIARLMVMVRQEESLMPSQVVKGGAFDGTMNGPFGHGYGEGAGEGIDDVEWVVGKDKPTYDEIFYTLSPVNGKITGANAKKEMVKSKLPNTVLGKIWKLADVDKDGLLDDEEFALANHLIKVKLEGHELPADLPPHLVPPSKRRHE

Tests used:
LAP-CP110 = LAP-CP110 (UniProt O43303); test: affinity purification with mass spectrometry; 293T cells stably expressing LAP, LAP-CP110 or LAP-EHD1, serum-starved 3 h; lysis in 50 mM Tris-HCl pH 7.4, 150 mM NaCl, 1% Triton-X100, 10% glycerol; GFP-Trap resin 2 h in a cold room, four washes; LAP alone as control
LAP-EHD1 = biological target: T1, LAP-EHD1; test: as above

Molecule	binding (LAP-CP110)	binding (LAP-EHD1)
CEP290 (from UniProt O15078 1-2479)	binds	–
HERC2 (from UniProt O95714 1-4834)	binds	binds
NEURL4 (from UniProt Q96JN8 1-1562)	binds	–
B1	binds	–

No constants are given. Whether binding was seen depends on the method and setting. Binding seen in cells or lysates may run through a third protein. A yes stands for co-enrichment or nearness to the bait. Other partners may have been found.
